Assay results: PubChem BioAssay AID2685 (National Center for Advancing Translational Sciences (NCATS), 2010)
The other results are listed elsewhere or left out. These are further read-outs of the screen, such as a control signal, another cell line or another target. No call is given for them. Compounds called inactive in the main read-out are mostly missing here. Words in brackets tell the shape of the fitted curve; partial curves, single points and poor fits give uncertain potencies.

Assay: qHTS Assay for Lipid Storage Modulators in Drosophila S3 Cells;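 on cell number change: cells counted by Cell Tracker Red CMTPX staining in the red channel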
Details: BODIPY lipid droplet fluorescence, 18-24 h; for cell number change: measured here: cell count max response, cells fed with added oleic acid
How it was run: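 Drosophila S3 cells loaded with oleic acid (400 uM, as added) and compounds at several concentrations; lipid droplets imaged by 488-nm laser-scanning cytometry, 500–530 nm intensity and object ratio to cell channel. Percent activity normalized to 20 uM Triacsin C.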

[1] = measured here: lipid fluorescence (Fed channel) AC50, cells fed with added oleic acid
[2] = measured here: cell number channel AC50, cells fed with added oleic acid

In the case of `C/C(CC(=O)NCCCN1CCOCC1)=N\NC(=O)COc1cccc2ccccc12`, the AC50 [1] is reported as 25.9 µM [rising, single point].
For `O=C(CC1(C(=O)O)CCCC1)N1CCOCC1`, the AC50 [2] was 6.51 µM [falling, single point] and the AC50 [1] was 6.51 µM [falling, single point].
Work on `CCCCC(=O)Nc1ccc2c(c1)nc(CCN1CCN(c3ccccn3)CC1)n2C` yielded a cell number change of 7.8%.
In the case of `COc1ccc(NC(=O)c2cc(-c3ccc(C)o3)nc3ccccc23)cc1OC`, the cell number change is reported as -50%, the AC50 [2] is reported as 2.91 µM [rising, partial curve] and the AC50 [1] is reported as 2.31 µM [rising, partial curve].
With `COC(=O)c1cc(CNC(=O)c2ccccc2OCc2c(C)noc2C)ccc1OC` the cell number change was -1.39%.
With `CCCCCN(C(=O)CCC(=O)OCC(=O)N(CC#N)c1ccccc1)c1c(N)n(CCCC)c(=O)[nH]c1=O` the cell number change was 59.6%, the AC50 [2] was 9.2 µM [rising, partial curve] and the AC50 [1] was 29.1 µM [rising, single point].
In the case of `Cc1ccc(-n2c(SCC(=O)Nc3ccc4c(c3)OCO4)nnc2-c2ccccn2)cc1`, the cell number change is reported as -15.8%, the AC50 [2] is reported as 0.164 µM [rising, full curve, poor fit] and the AC50 [1] is reported as 0.184 µM [rising, full curve, poor fit].
For `Cc1ccc(C)n1-c1cc(S(=O)(=O)N2CCOCC2)ccc1N1CCCC1`, the cell number change was 11.1% and the AC50 [1] was 20.6 µM [rising, partial curve].
In the case of `O=C(NCc1cccs1)c1cc(-c2ccccc2)nc2ccccc12`, the cell number change is reported as 2.76% and the AC50 [1] is reported as 9.2 µM [rising, partial curve].
In the case of `O=c1c2cc3c(=O)n(CC4CCCO4)c(=O)c3cc2c(=O)n1CC1CCCO1` (centres undefined), the cell number change is reported as -7.55% and the AC50 [1] is reported as 16.4 µM [falling, partial curve, poor fit].
For `O=C(NCCO)c1ccc2nc(Cc3cccc(Cl)c3)oc2c1`, the cell number change was -3.72%.
In the case of `C#CCn1cc(/C=N/NC(=O)c2cc3ccccc3o2)c2ccccc21`, the cell number change is reported as 58.9% and the AC50 [2] is reported as 5.8 µM [rising, single point].
With `CCCNc1nc(OC(C(F)(F)F)C(F)(F)F)nc(OC(C(F)(F)F)C(F)(F)F)n1` the cell number change was -39.2% and the AC50 [2] was 29.1 µM [falling, single point].
For `N#Cc1ccc(C(=O)Nc2ccc(S(=O)(=O)NC3=NCCCCC3)cc2)cc1`, the cell number change was 89.5%, the AC50 [2] was 16.4 µM [rising, partial curve] and the AC50 [1] was 5.17 µM [rising, partial curve].
In the case of `CN(C)c1oc(-c2ccc(Cl)cc2)nc1S(=O)(=O)c1ccccc1`, the AC50 [1] is reported as 7.31 µM [rising, partial curve].
For `CCOC(=O)c1c(C)nc(C(Cl)(Cl)Cl)nc1N`, the cell number change was -31.8% and the AC50 [2] was 29.1 µM [falling, single point].
In the case of `O=C(O)C1(c2cccc(Cl)c2)CCC1`, the cell number change is reported as -14.1% and the AC50 [2] is reported as 4.11 µM [rising, single point].
For `CCC1CCCCN1CCCNC(=O)c1ccc2c(c1)N(Cc1ccc(F)cc1)C(=O)c1ccccc1S2=O` (centres undefined), the cell number change was 8.26% and the AC50 [1] was 2.59 µM [falling, single point].
For `CCOc1ccc(S(=O)(=O)NC(C)C(=O)NCc2ccccn2)cc1` (centres undefined), the AC50 [1] was 0.206 µM [rising, single point].
For `CN(C)c1oc(COc2ccc(F)cc2)nc1C#N`, the cell number change was 21.6% and the AC50 [1] was 0.259 µM [rising, full curve, poor fit].
For `Cc1cc(S(=O)(=O)NCc2ccccc2)ccc1OCC(=O)NCc1cccnc1`, the cell number change was 16.8% and the AC50 [1] was 29.1 µM [falling, single point].
With `S=C(c1ccc(-c2ccccc2Cl)o1)N1CCOCC1` the cell number change was 11.1% and the AC50 [1] was 0.461 µM [rising, single point].
For `CCOC(=O)C1CCCN(C(=O)c2ccc(CNS(=O)(=O)c3ccc(C)cc3)cc2)C1` (centres undefined), the cell number change was 6.62%, the AC50 [2] was 0.164 µM [falling, full curve, poor fit] and the AC50 [1] was 0.164 µM [falling, full curve, poor fit].
In the case of `O=C(Nc1cccs1)Nc1ccc(Br)cc1F`, the cell number change is reported as -35.2%, the AC50 [2] is reported as 23.1 µM [falling, single point] and the AC50 [1] is reported as 0.103 µM [rising, full curve, poor fit].
Work on `Clc1ccccc1CSc1nc2ccncc2[nH]1` yielded a cell number change of -18.6%.
Work on `COCCCN1C(=O)N(c2ccc(F)cc2)C(=O)C1CC(=O)Nc1ccccc1` (centres undefined) yielded a cell number change of 10.8%.
In the case of `COc1ccc(C(CNC(=O)COc2ccc(Br)cc2F)N2CCCC2)cc1` (centres undefined), the cell number change is reported as -19.4% and the AC50 [1] is reported as 3.66 µM [rising, partial curve].
With `Cc1ccccc1NC(=O)c1ccc(COc2ccc3c(C)cc(=O)oc3c2)cc1` the AC50 [2] was 0.92 µM [falling, full curve, poor fit] and the AC50 [1] was 0.651 µM [falling, single point].
With `COc1cccc(COC(=O)c2c(C)nn(-c3ccccc3)c2Cl)c1OC` the cell number change was 54.6% and the AC50 [2] was 23.1 µM [rising, single point].
For `CC1CN(C(=O)CCCN2C(=O)c3ccccc3C2=O)CC(C)O1` (centres undefined), the cell number change was -13.5% and the AC50 [1] was 6.51 µM [falling, single point].
With `COC(=O)C(CC(C)C)NC(=O)CSc1nc(-c2ccccc2)c(C#N)c(=O)[nH]1` (centres undefined) the cell number change was -16.4% and the AC50 [1] was 18.4 µM [falling, partial curve].
In the case of `CCN(CC(=O)N1CCCC1)S(=O)(=O)c1ccc(F)cc1`, the cell number change is reported as -5.26% and the AC50 [1] is reported as 18.4 µM [rising, single point].
For `CCOC(=O)C(=CNc1cc(C)nn1-c1ccccc1)C(=O)OCC`, the AC50 [1] was 3.66 µM [rising, single point].
With `Cc1ccc(NC(=O)CSc2nc3ccccc3nc2N2CCOCC2)cc1` the cell number change was -5.48% and the AC50 [1] was 29.1 µM [falling, single point].
With `Cc1cccc(C)c1N1CCN(c2cc(Cl)nc(N)n2)CC1` the cell number change was -35.1%, the AC50 [2] was 29.1 µM [falling, single point] and the AC50 [1] was 29.1 µM [falling, single point].
Compound `Cc1coc2cc3oc(=O)c(CCC(=O)NCCCN4CCOCC4)c(C)c3cc12` has a cell number change of 16.9%.
For `CN(C)S(=O)(=O)c1ccc(NC(=O)C2CC(=O)N(Cc3ccccc3Cl)C2)cc1` (centres undefined), the cell number change was 7.09%, the AC50 [2] was 0.651 µM [falling, full curve, poor fit] and the AC50 [1] was 0.517 µM [falling, full curve].
For `Cc1cc(C)c([N+](=O)[O-])cc1-c1ccc(/C=N/NC(=O)c2nonc2N)o1`, the cell number change was 70.1% and the AC50 [2] was 20.6 µM [rising, single point].
With `OCCCc1nc2n(n1)C(c1cccs1)C=C(c1ccccc1)N2` (centres undefined) the cell number change was -8.23% and the AC50 [1] was 0.00461 µM [falling, full curve, poor fit].
With `CC(NC(=O)c1ccc(NC2=NC3CS(=O)(=O)CC3S2)cc1)c1ccccc1` (centres undefined) the cell number change was 11.2%.
For `Cc1cc(C)cc(C(=O)NC(CC(N)=O)c2ccc(N3CCC(N4CCCCC4)CC3)c([N+](=O)[O-])c2)c1` (centres undefined), the cell number change was 0.599% and the AC50 [1] was 3.26 µM [rising, single point].
In the case of `COc1ccccc1N1CCN(CC(=O)Nc2ccccc2C(=O)NCCc2ccccc2)CC1`, the cell number change is reported as 14.2% and the AC50 [1] is reported as 20.6 µM [rising, single point].
With `COc1ccc(CCNC(=O)CS(=O)Cc2nc(-c3ccccc3F)oc2C)cc1OC` (centres undefined) the cell number change was 64.3% and the AC50 [2] was 18.4 µM [rising, single point].
With `O=C(/C=C/c1ccccc1)Nc1sc2c(c1C(=O)O)CCC2` the cell number change was -6.67% and the AC50 [1] was 0.082 µM [falling, full curve, poor fit].
In the case of `CC(C)c1csc(CN2CCC(n3nccc3NC(=O)Cc3ccccc3)CC2)n1`, the AC50 [1] is reported as 29.1 µM [falling, single point].
With `Fc1cccc(CSc2ncnc3c2oc2ccccc23)c1` the cell number change was 0.768% and the AC50 [1] was 0.103 µM [rising, full curve, poor fit].
Work on `O=C(O)c1ccccc1S(=O)(=O)CC(=O)N1CCCCC1` yielded a cell number change of 9.72%.
Compound `CC1(C)Cc2c(cnn2-c2cccc(F)c2)C(NC(=O)CCc2cnccn2)C1` (centres undefined) has a cell number change of -7.74%.
For `Cc1cc(NC(=O)c2cc(-c3cccs3)on2)nn1Cc1ccc(Cl)cc1`, the cell number change was -49.1%, the AC50 [2] was 16.4 µM [falling, partial curve] and the AC50 [1] was 29.1 µM [falling, single point].
In the case of `CC(C)(C)OC(=O)N1CCC2(CC1)Oc1ccc(F)cc1C(=O)C21CC(c2cccnc2)=NO1` (centres undefined), the cell number change is reported as 19.1% and the AC50 [1] is reported as 10.3 µM [rising, partial curve, poor fit].
For `COc1ccccc1N(C)S(=O)(=O)c1ccc(C(=O)OCC(N)=O)cc1`, the cell number change was 1.56% and the AC50 [1] was 2.06 µM [falling, partial curve].
`CC1CC(C)CN(S(=O)(=O)N2CCC(C(=O)NCCc3ccccc3)CC2)C1` (centres undefined) gave a cell number change of 1.53%.
With `Cc1ccc(C(=O)NCCCn2ccnc2)cc1[N+](=O)[O-]` the cell number change was -16.9% and the AC50 [2] was 0.092 µM [falling, full curve, poor fit].
In the case of `Cc1nc(-c2ccccc2)sc1C(=O)NN`, the cell number change is reported as 63.5%, the AC50 [2] is reported as 2.91 µM [falling, single point] and the AC50 [1] is reported as 3.66 µM [falling, single point].
With `CCOc1ccc(N(C)S(=O)(=O)c2ccc(C)c(C(=O)Nc3nnc(C4CC4)s3)c2)cc1` the cell number change was 17.6% and the AC50 [1] was 6.51 µM [rising, partial curve, poor fit].
For `CCCCCc1nc2c(c(=O)c3ccccc3n2C)c(=O)n1Cc1ccc(OC)cc1`, the cell number change was 19.9% and the AC50 [1] was 0.58 µM [rising, full curve].
For `Cn1c(SCc2nc(-c3cccs3)no2)nnc1C1CCCCC1`, the cell number change was 88.2%, the AC50 [2] was 20.6 µM [rising, single point] and the AC50 [1] was 18.4 µM [rising, single point].
In the case of `O=C(NCc1ccccc1CN1CCCC1)c1ccc(Cl)c(N2CCCC2=O)c1`, the cell number change is reported as 26.9% and the AC50 [1] is reported as 0.58 µM [rising, full curve].
With `CCCc1nc(N2CCOCC2)c(C#N)c2c1CCCC2` the cell number change was 52.9% and the AC50 [2] was 29.1 µM [rising, single point].
